# PubChem BioAssay AID504444 (National Center for Advancing Translational Sciences (NCATS), 2011)
# The campaign covered roughly 360,000 compounds. About 7,500 (2.1%) were called active. Inconclusive means that the source gave no clear call. Such entries were picked first, then a sample of the others. Calls come from the whole dose curve; as a rule, active = well fitted inhibition curve with a large enough effect; inconclusive = small, poorly fitted or top-dose-only effect, or effect the other way; inactive = flat fitted curve, though single readings scatter. Where the call is inconclusive, the potency comes from a doubtful curve fit.
# Test: Nrf2 qHTS screen for inhibitors; note: nearly all actives have a fitted effect of over 60% in size
# Details: A549 ARE-Fluc reporter, luciferase luminescence, 18-24 h; activity change, negative = inhibition: at 46 µM (top of the series)
# Method in brief: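 Nrf2 activity is the BugLite luminescence, read 15 min after reagent at room temperature, following CellTiter-Fluor cytotoxicity readout (30 min, 37C). Compound titrations were applied for 18-24 h to 5000 A549 ARE_Fluc cells/well in 5% FBS OPTI-MEM.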
# % is set by controls: 0 for no effect and ±100 for the full control effect; potency is the fitted concentration of half-maximal effect.
Structure (SMILES),Potency,"activity change, negative = inhibition"
Cc1cccc2c1NC1(CCCC1)CC2C (stereo not drawn),"inconclusive: 29.1 µM [activator, partial curve, poor fit]",–
COc1cccc2cc(-c3nnc(-c4ccccc4)o3)c(=O)oc12,"inconclusive: 11.6 µM [activator, partial curve, poor fit]",–
Clc1cc(Cl)c(OCc2nc(-c3ccccn3)no2)cc1Cl,"inconclusive: 2.59 µM [activator, partial curve, poor fit]",–
O=C(C1CCC(Cn2c(=S)[nH]c3ccccc3c2=O)CC1)N1CCN(c2ccccc2)CC1 (stereo not drawn),"inconclusive: 29.1 µM [falling, single point]",–
Nc1ccc(N2CCN(C(=O)c3cccs3)CC2)cc1,"inconclusive: 1.03 µM [falling, full curve, poor fit]",–
COc1ccc(NC(=O)c2sc3nc(C)nc(N4CCN(c5ccccn5)CC4)c3c2C)cc1Cl,"inconclusive: 7.31 µM [falling, partial curve]",–
CCc1ccc(/C=C\C(=O)N2CCCC2)cc1,"inconclusive: 29.1 µM [activator, single point]",–
CCCc1cc(C(=O)Nc2ccn(Cc3ccc(C)cc3)n2)no1,"inconclusive: 32.6 µM [falling, single point]",–
O=c1oc2ccccc2cc1-c1nc(-c2ccccc2)no1,"inconclusive: 7.31 µM [activator, partial curve]",–
Cc1onc(-c2ccccc2)c1-c1ccnn1S(=O)(=O)c1ccc(Cl)cc1,–,inactive: -24%
N#CC(c1ccccc1)c1ccc(C(=O)c2ccc(F)cc2)cc1 (stereo not drawn),"inconclusive: 20.6 µM [falling, single point]",–
COc1ccc(CN(CCN(C)C)c2ccccn2)cc1,inactive,–
CCCNC(C)C(=O)Nc1ccccc1C (stereo not drawn),–,inactive: 5.31%
CC[n+]1c(/C=C2\Sc3ccccc3N2C)ccc2cccc(C)c21,active: 3.66 µM,–
COc1cccc(CCN2CCC(CNS(=O)(=O)c3cc(-c4cc(C)no4)ccc3OC)CC2)c1,"inconclusive: 16.4 µM [falling, partial curve]",–
CCC(=O)Nc1ccc(Br)c(Cl)c1,"inconclusive: 25.9 µM [falling, single point]",–
Cc1ccc(-c2cc(C(=O)N3CCN(C(=O)c4ccco4)CC3)[nH]n2)c(C)c1,"inconclusive: 13 µM [falling, partial curve, poor fit]",–
Cc1cccc(NS(=O)(=O)c2ccc(C)c(C(=O)NCC(c3ccccc3)N(C)C)c2)c1 (stereo not drawn),–,inactive: -21.8%
Nc1ncn([C@@H]2O[C@H](CO)[C@@H](O)[C@H]2O)c(=O)n1,–,inactive: -23.2%
CCCCCc1ccc(-c2ccc(Br)cc2)nc1,"inconclusive: 4.11 µM [activator, full curve]",–
Cc1ccccc1C(=O)N1CCN(c2ccc(NC(=S)NC(=O)c3cccs3)cc2)CC1,–,inactive: 5.16%
Cc1[nH]nc(Sc2ccccn2)c1[N+](=O)[O-],"inconclusive: 3.26 µM [activator, full curve, poor fit]",–
CCOCCCNC(=S)NCCCNc1nc2cc3c(cc2cc1C#N)OCO3,–,inactive: -11.4%

Structure (SMILES),Potency,"activity change, negative = inhibition"
COc1ccc(C(C(=O)NC2CCCC2)N(C(=O)c2ccoc2C)c2ccc(C)cc2)cc1 (stereo not drawn),"inconclusive: 32.6 µM [falling, single point]",–
CSc1cccc(NC(=O)CSc2ncccc2C(=O)Oc2cccc([N+](=O)[O-])c2)c1,–,inactive: 20.7%
NCCc1c(-c2ccccc2)n(-c2ccccc2)c2ccccc12,"inconclusive: 32.6 µM [activator, partial curve, poor fit]",–
Cc1ccc(Oc2coc3cc(OC(=O)c4cccs4)ccc3c2=O)cc1,"inconclusive: 1.84 µM [falling, full curve, poor fit]",–
O=C(NC1CCCCC1)N1CCc2ccccc2C1,"inconclusive: 13 µM [activator, partial curve]",–
Cc1cc(NC(=O)c2cc(-c3ccc(C)s3)nc3ccccc23)no1,–,inactive: 11.2%
Cc1c(C(=O)NCC2COc3ccccc3O2)oc2ccc(S(=O)(=O)N3CCOCC3)cc12 (stereo not drawn),active: 18.4 µM,–
O=c1[nH]c2ccc(S(=O)(=O)Nc3ccc(Cl)cc3)cc2o1,"inconclusive: 29.1 µM [falling, partial curve, poor fit]",–
CC1CCc2nc(-c3cc4c(ccc5ccccc54)oc3=O)sc2C1 (stereo not drawn),–,inactive: 1.64%
CCN(CC(=O)NCc1cccs1)C(=O)c1ccc(-c2ccc(F)cc2)o1,"inconclusive: 20.6 µM [falling, partial curve, poor fit]",–
O=C(NCCc1ccccc1)Nc1ccc(Cl)cc1,–,inactive: 17.3%
CSc1ccc(CCNC(=O)c2cc(C)nc3c2c(C)nn3-c2cccc(F)c2)cc1,"inconclusive: 32.6 µM [falling, single point]",–
Cc1cc2ncn(C(=O)N3CCC(C)CC3)c2cc1C,"inconclusive: 14.6 µM [activator, single point]",–
CC1(c2ccc(OC(F)F)cc2)NC(=O)N(CC(=O)Nc2cccc(S(N)(=O)=O)c2)C1=O (stereo not drawn),"inconclusive: 29.1 µM [falling, single point]",–
COc1ccccc1N1CCN(c2ccc(=O)n(CC(=O)NCc3ccc(F)cc3)n2)CC1,–,inactive: 23.7%
O=C(NNC(=S)NC(=O)c1ccccc1)c1ccc([N+](=O)[O-])cc1,"inconclusive: 18.4 µM [falling, single point]",–
CN(C)S(=O)(=O)c1cc(NC(=O)CNCc2ccccc2)ccc1Cl,"inconclusive: 16.4 µM [activator, partial curve]",–
O=C(COc1ccc(S(=O)(=O)NCc2ccccc2)cc1)NCc1cccnc1,"inconclusive: 29.1 µM [falling, single point]",–
Cc1cc(NS(=O)(=O)c2ccc(Nc3nc(-c4ccc(C)c(C)c4)cs3)cc2)no1,"inconclusive: 25.9 µM [falling, single point]",–
CCOC(=O)c1ccc(NC(=O)CCc2ccc(CC)o2)cc1,"inconclusive: 2.91 µM [falling, partial curve, poor fit]",–
Cc1sc2ncnc(SCC(=O)c3ccc4c(c3)OCCO4)c2c1-c1ccccc1,"inconclusive: 3.26 µM [falling, full curve]",–
CCOC(=O)N1CCN(C(=O)CN(Cc2ccccc2)S(C)(=O)=O)CC1,–,inactive: 5.24%
N#Cc1ccc(C(=O)NC2CCCCCCC2)cc1,"inconclusive: 10.3 µM [activator, partial curve]",–

Structure (SMILES),Potency,"activity change, negative = inhibition"
Cc1cc(C)cc(N2C(=O)CSC23C(=O)N(Cc2c(F)cccc2Cl)c2ccccc23)c1 (stereo not drawn),"inconclusive: 25.9 µM [falling, single point]",–
CCOC(=O)c1cc(-c2ccccc2C)n(Cc2cc(C)no2)n1,"inconclusive: 29.1 µM [falling, single point]",–
Cc1cccc2nc(-c3ccccn3)c(Nc3ccc(F)cc3)n12,active: 16.4 µM,–
Cc1cc(C)c2nc(N3C(=O)C(O)=C(C(=O)c4ccco4)C3c3ccco3)sc2c1 (stereo not drawn),"inconclusive: 16.4 µM [falling, single point]",–
COc1ccc(/C=N/NC(=O)CN(C2=NS(=O)(=O)c3ccccc32)c2ccccc2)cc1OC,"inconclusive: 20.6 µM [falling, single point]",–
Cc1ccc(OCc2nc(-c3ccccc3)no2)cc1,"inconclusive: 23.1 µM [activator, partial curve, poor fit]",–
N/C(=N\OC(=O)c1ccco1)c1ccccc1,"inconclusive: 6.51 µM [activator, partial curve, poor fit]",–
C/C(=N\N=c1/scc(C)n1Cc1ccco1)c1cccc([N+](=O)[O-])c1,"inconclusive: 23.1 µM [activator, single point]",–
Cc1ccc(NS(=O)(=O)c2ccc(NC(=O)CN(c3cc([N+](=O)[O-])ccc3C)S(C)(=O)=O)cc2)c(C)c1,active: 9.2 µM,–
Fc1ccccc1CN1CCCN(C(=S)Nc2cccc(Cl)c2)C1,"inconclusive: 29.1 µM [activator, single point]",–
NC(=O)C1=C[C@@H](c2csc3ccccc23)C[C@@H](OCc2ccc(CO)cc2)O1,"inconclusive: 29.1 µM [falling, single point]",–
CC1OC23CCCCC2C(C#N)(C(=N)O3)C1(C#N)C#N (stereo not drawn),–,inactive: 26.3%
COc1ccccc1CCNC(=O)C1CCC(=O)N(Cc2cccc(F)c2)C1 (stereo not drawn),"inconclusive: 9.2 µM [activator, partial curve, poor fit]",–
CCOCCc1nnc(NC(=O)CS(=O)(=O)Cc2ccccc2)s1,"inconclusive: 29.1 µM [falling, single point]",–
Cc1cc(C)c(N=Cc2c(O)n(-c3nccs3)c(=O)c3ccccc23)c(C)c1,"inconclusive: 20.6 µM [falling, partial curve, poor fit]",–
O=C(Nc1ccc(F)c(Cl)c1)Nc1c[nH]c(=O)[nH]c1=O,–,inactive: 5.23%
Cc1ccc(C23CC4CC(CC(CN)(C4)C2)C3)cc1,–,inactive: 0.9%
CN(Cc1cccc(Cl)c1Cl)C(=O)c1ccccc1SCC(=O)N1CCCC1,"inconclusive: 32.6 µM [falling, single point]",–
COCCN(C(=O)c1ccco1)c1nnc(-c2ccc(F)cc2)s1,"inconclusive: 25.9 µM [activator, partial curve, poor fit]",–
Cc1ccc2nc(SCc3nc(-c4ccc(Cl)cc4)no3)[nH]c2c1,"inconclusive: 20.6 µM [falling, single point]",–
O=C(Nc1ccc(Cl)cn1)c1cccc(S(=O)(=O)N2CCCC2)c1,"inconclusive: 29.1 µM [falling, single point]",–
CC(CNC(=O)c1cnn(-c2ccc(F)cc2)c1-n1cccc1)c1ccccc1 (stereo not drawn),"inconclusive: 29.1 µM [falling, single point]",–

# Gathered by group, the entries above containing a nitro group on carbon
Structure (SMILES),Potency,"activity change, negative = inhibition"
Cc1[nH]nc(Sc2ccccn2)c1[N+](=O)[O-],"inconclusive: 3.26 µM [activator, full curve, poor fit]",–
CSc1cccc(NC(=O)CSc2ncccc2C(=O)Oc2cccc([N+](=O)[O-])c2)c1,–,inactive: 20.7%
O=C(NNC(=S)NC(=O)c1ccccc1)c1ccc([N+](=O)[O-])cc1,"inconclusive: 18.4 µM [falling, single point]",–
C/C(=N\N=c1/scc(C)n1Cc1ccco1)c1cccc([N+](=O)[O-])c1,"inconclusive: 23.1 µM [activator, single point]",–
Cc1ccc(NS(=O)(=O)c2ccc(NC(=O)CN(c3cc([N+](=O)[O-])ccc3C)S(C)(=O)=O)cc2)c(C)c1,active: 9.2 µM,–
